In PubChem BioAssay AID504834 (National Center for Advancing Translational Sciences (NCATS), 2011):
Out of some 320,000 compounds screened, about 22,000 (6.9%) were called active. The inconclusive results got no clear call from the source; some entries with a clear call stand among them for comparison. Calls come from the whole dose curve; as a rule, active = well fitted inhibition curve with a large enough effect; inconclusive = small, poorly fitted or top-dose-only effect, or another doubt; inactive = no such curve, though single readings can be large or run the other way. Potencies of inconclusive entries are doubtful fits and often do not repeat.
% is set by controls: 0 for no effect and ±100 for the full control effect; potency is the fitted concentration of half-maximal effect.

Test: Primary qHTS for delayed death inhibitors of the malarial parasite plastid, 96 hour incubation
Details: P. falciparum luciferase reporter growth; series mostly up to 28.7 µM; activity change, negative = inhibition: at the top concentration
Procedure, shortened: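 Delayed-death screen, second-generation endpoint: infected erythrocytes, 2% hematocrit, 0.05% parasitemia final; 96 hours at 37 C, 5% CO2; luciferase detection reagent; luminescence decrease equals reduced growth.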
For `Cc1ccc(C(C)C)c(OCC(=O)Nc2sc3c(c2C#N)CC(C)(C)NC3(C)C)c1`, the Potency was inconclusive: 11.7 µM [inhibitor, partial curve]. In the case of `Cc1cccc2nc(CSc3nc4ccc([N+](=O)[O-])cc4[nH]3)c(Br)n12`, the Potency is reported as inconclusive: 10.4 µM [inhibitor, single point]. In the case of `Cc1oc(C(C)(C)C)cc1C(=O)Nc1cccc(/C=C/C(=O)O)c1`, the “activity change, negative = inhibition” value is reported as inactive: 3.04%. With `COc1ccc(CNCc2c(C(=O)N(C)C)nc3ccc(Cl)cn23)c(OC)c1` the Potency was inconclusive: 11.7 µM [inhibitor, single point]. For `CN(CC(=O)Nc1c(Cl)cccc1Cl)C(=O)CCC1CCCC1`, the Potency was inconclusive: 18.5 µM [inhibitor, single point]. With `Cc1ccc(S(=O)(=O)N2C(=O)CCC2C(=O)O/N=C(\N)c2cccc([N+](=O)[O-])c2)cc1` (configuration not stated) the Potency was inconclusive: 10.4 µM [inhibitor, single point]. In the case of `O=C(CN1C(=O)c2ccc([N+](=O)[O-])cc2C1=O)Nc1ccccc1N1CCCC1`, the “activity change, negative = inhibition” value is reported as inactive: 11.7%. In the case of `Cc1cc(NC(=O)CSc2nnc(C3CC3)n2C)no1`, the Potency is reported as inconclusive: 1.04 µM [inhibitor, partial curve]. For `CCCn1c(=O)c(Cc2ccccc2)c(O)c2ccccc21`, the “activity change, negative = inhibition” value was inactive: 40.4%. For `CC(C)C(=O)N1CCC(n2nccc2NC(=O)CCOc2ccccc2)CC1`, the Potency was inconclusive: 6.57 µM [inhibitor, partial curve]. For `COCCCNC(=S)N(CCO)Cc1cc2cc3c(cc2[nH]c1=O)OCCO3`, the Potency was inconclusive: 18.5 µM [inhibitor, single point]. For `CCOC(=O)c1nnn(-c2nonc2-n2cccc2)c1CN1CCOCC1`, the Potency was inconclusive: 0.0657 µM [inhibitor, full curve, poor fit]. With `O=C(CSc1nnc(-c2ccc(Cl)cc2)n1Cc1ccco1)NCc1ccc2c(c1)OCO2` the Potency was inconclusive: 0.294 µM [inhibitor, partial curve, poor fit]. In the case of `Cc1ccc(S(=O)(=O)CCC(=O)Nc2ccc(S(=O)(=O)N(C)C)cc2)cc1`, the Potency is reported as inconclusive: 18.5 µM [inhibitor, single point]. For `Cc1cc(CN(C)Cc2ccc(OCC(O)CN(C)Cc3ccccc3)cc2)on1` (configuration not stated), the Potency was inconclusive: 18.5 µM [inhibitor, single point]. For `COc1ccc(C(=O)C2CCCN(C(=O)COc3ccc(C(C)=O)cc3)C2)cc1F` (configuration not stated), the Potency was active: 11.7 µM. In the case of `Cc1ccc(/C=C/C(=O)N2CC(=O)Nc3ccccc32)o1`, the “activity change, negative = inhibition” value is reported as inactive: -6.55%. In the case of `Nc1ccc2c(c1)N1CCN=C1S2`, the “activity change, negative = inhibition” value is reported as inactive: 15.1%. In the case of `CCS(=O)(=O)c1ccc(-c2csc(-c3ccccc3Cl)n2)c(Cl)c1Cl`, the Potency is reported as inconclusive: 18.5 µM [inhibitor, single point]. With `CC1CCN(C(=O)CCNS(=O)(=O)c2ccc3c(c2)oc(=O)n3C)CC1` the Potency was inconclusive: 13.1 µM [inhibitor, single point]. For `Cc1ccc(C2CC(=O)NC(SCC(N)=O)=C2C#N)s1` (configuration not stated), the “activity change, negative = inhibition” value was inactive: -0.235%. In the case of `O=c1c(NCCc2ccccc2)c(-c2ccccc2)c1=O`, the “activity change, negative = inhibition” value is reported as inactive: -15.8%. For `COCCNC(=O)CSc1nnc(-c2ccc(C)cc2)c(-c2ccc(C)cc2)n1`, the Potency was inconclusive: 0.0657 µM [inhibitor, full curve, poor fit]. For `CCCCC1=NC2(CCCC2)C(=O)N1Cc1ccc(-c2ccccc2-c2nn[nH]n2)cc1`, the Potency was inconclusive: 7.57 µM [inhibitor, partial curve]. In the case of `Cc1nc2cc(NC(=O)CS(=O)(=O)c3ccc(F)cc3)ccc2s1`, the “activity change, negative = inhibition” value is reported as inactive: 9.33%. With `O=C(OCc1cc(=O)n2cc(Br)ccc2n1)C1COc2ccccc2O1` (configuration not stated) the “activity change, negative = inhibition” value was inactive: 49.9%. For `CCCn1c(SCC(=O)Nc2cccc(C(=O)OCC)c2)nnc1-c1ccoc1C`, the Potency was inconclusive: 0.0029 µM [inhibitor, full curve, poor fit]. With `COc1cccc(CC2(CO)CCCN(Cc3ccc4c(c3)OCCO4)C2)c1` (configuration not stated) the Potency was active: 10.4 µM. In the case of `O=C(CC1(O)C(=O)Nc2ccccc21)c1ccccc1O` (configuration not stated), the Potency is reported as inconclusive: 2.94 µM [inhibitor, full curve, poor fit]. For `CSc1nc2ccccc2c(=O)n1Cc1ccc(F)cc1`, the “activity change, negative = inhibition” value was inactive: -1.4%. With `COc1ccc(C(=O)c2oc3ccc(Br)cc3c2NC(C)=O)cc1` the Potency was inconclusive: 9.28 µM [inhibitor, partial curve, poor fit]. In the case of `O=C(/C=C/c1cccc([N+](=O)[O-])c1)c1ccco1`, the Potency is reported as inconclusive: 11.7 µM [inhibitor, partial curve, poor fit]. For `Cc1cccc(OCCn2c(CCCO)nc3ccccc32)c1`, the Potency was inconclusive: 0.104 µM [inhibitor, full curve, poor fit]. With `O=C(COc1ccccc1-c1ccccc1)NN=C1CCCC1` the Potency was inconclusive: 1.17 µM [inhibitor, partial curve, poor fit]. With `CCCn1c2ccccc2c2cnn(CC(=O)N3CCOCC3)c(=O)c21` the Potency was inconclusive: 9.28 µM [inhibitor, single point]. In the case of `COc1cc(OC)c2ccc(=O)oc2c1C(CC(=O)N1CCCC(C)C1)c1ccc2c(c1)OCO2` (configuration not stated), the Potency is reported as inconclusive: 0.37 µM [inhibitor, full curve]. For `Oc1ccc(Br)cc1/C=N/N1CCN(Cc2cccc3ccccc23)CC1`, the Potency was inconclusive: 0.0415 µM [inhibitor, full curve, poor fit]. With `Cc1ccc(NC(=O)CN2C(=O)c3ccccc3C2=O)c(C)c1` the Potency was inconclusive: 0.738 µM [inhibitor, partial curve, poor fit]. For `Cc1ccc2nc(-c3ccc4c(c3)OCCO4)cn2c1`, the “activity change, negative = inhibition” value was inactive: 67.2%. With `CCOC(=O)c1c(C)[nH]c(C)c1C(=O)COC(=O)/C=C/c1cccc(Cl)c1` the Potency was inconclusive: 11.7 µM [inhibitor, single point]. With `COc1cc(S(=O)(=O)Nc2ncn[nH]2)ccc1Cl` the Potency was inconclusive: 16.5 µM [inhibitor, partial curve, poor fit]. In the case of `Cc1cc(C)cc(NC(=O)CSc2nnc(-c3cc(C)[nH]n3)n2N)c1`, the Potency is reported as inconclusive: 10.4 µM [inhibitor, partial curve, poor fit]. In the case of `O=C(COc1ccc(Cl)cc1)N(c1ccccc1Cl)C1CN2CCC1CC2` (configuration not stated), the Potency is reported as inconclusive: 7.38 µM [inhibitor, partial curve]. For `Cc1cc(C(=O)N/N=C/C(Cl)=C/c2ccccc2)c(C)o1`, the Potency was active: 10.4 µM. For `COc1cccc(N2CC(C(=O)NNC(=O)c3ccc(Cl)cc3)CC2=O)c1` (configuration not stated), the Potency was active: 5.86 µM. With `COc1ccccc1OCCOCCOc1c(C)cc(C)cc1Br` the Potency was active: 2.94 µM. For `O=c1c2c(nc3n1CCCCC3)-c1ccccc1CC21CCCC1`, the Potency was inconclusive: 7.38 µM [inhibitor, partial curve, poor fit]. For `CCC(Sc1nc(C)cc(C)n1)C(=O)Nc1ccc(Cl)cn1` (configuration not stated), the “activity change, negative = inhibition” value was inactive: 1.15%. With `Cc1cc(C)c(OCC(=O)NCC(c2ccco2)N2CCCCC2)c(C)c1` (configuration not stated) the Potency was active: 11.7 µM. With `CCN(CC)C(=O)CSc1nc2c(sc(=S)n2Cc2ccco2)c(=O)n1-c1ccccc1` the Potency was active: 7.38 µM. With `CCN(CC)C(=O)c1ccc2c3c(cccc13)C(=O)N(CCc1ccc(OC)c(OC)c1)C2=O` the Potency was inconclusive: 8.28 µM [inhibitor, partial curve, poor fit]. In the case of `CCOc1cc(N2CCOCC2)c(OCC)cc1NC(=O)COc1ncnc2ccccc12`, the Potency is reported as inconclusive: 18.5 µM [inhibitor, single point]. In the case of `COc1ccc(C(=O)Nc2ccc(N3CCN(C)CC3)cc2)cc1`, the Potency is reported as active: 0.0928 µM. For `Cc1cccc(Oc2ccc(NC(=O)C3CC=CCC3C(=O)O)cc2)c1` (configuration not stated), the Potency was inconclusive: 4.15 µM [inhibitor, full curve, poor fit]. For `COc1ccc(C(=O)Nc2ccc(NC(C)=O)cc2)cc1S(=O)(=O)N1CCCC1`, the Potency was inconclusive: 11.7 µM [inhibitor, partial curve]. In the case of `O=C(N/C(=C/c1ccco1)C(=O)N1CCc2ccccc21)c1ccco1`, the Potency is reported as inconclusive: 10.4 µM [inhibitor, partial curve, poor fit]. With `C=CCCC(=O)N1CCCC(C(=O)c2cccc(OC)c2)C1` (configuration not stated) the Potency was inconclusive: 18.5 µM [inhibitor, single point]. For `COc1ccc(-n2c(C)nnc2SCC(=O)Nc2ccccc2F)cc1`, the “activity change, negative = inhibition” value was inactive: -8.02%. With `O=C(Nc1ccc(S(=O)(=O)Nc2ncccn2)cc1)c1nn(Cc2ccccc2)c(=O)c2ccccc12` the Potency was inconclusive: 1.65 µM [inhibitor, full curve, poor fit]. For `CCCCC(NS(=O)(=O)c1ccc(OC)cc1)C(=O)O` (configuration not stated), the “activity change, negative = inhibition” value was inactive: 19.3%. For `COc1ccc(C(=O)C2CCCN(Cc3cnc(N4CCCC4)s3)C2)cc1OC` (configuration not stated), the Potency was inconclusive: 9.28 µM [inhibitor, single point]. In the case of `CCOC(=O)C1CCN(c2nc(-c3ccc(C)cc3)nc3ccccc23)CC1`, the Potency is reported as inconclusive: 9.28 µM [inhibitor, partial curve]. In the case of `C#CCOCCOCCOCCNc1nc(N2CCOCC2)nc(N2CCN(C(=O)[C@H]([C@@H](C)O)n3cc(CCCCN)nn3)CC2)n1`, the Potency is reported as inconclusive: 13.1 µM [inhibitor, partial curve, poor fit]. In the case of `CC(C)Oc1cccc(C(=O)Nc2ccccc2N2CCOCC2)c1`, the “activity change, negative = inhibition” value is reported as inactive: -6.18%. In the case of `COC(=O)[C@@H](Cc1c[nH]c2ccccc12)NC(=O)CCC(=O)c1ccc(F)cc1`, the Potency is reported as inconclusive: 9.28 µM [inhibitor, partial curve]. With `CCc1nc2ccccc2n1CC(C)C(=O)O` (configuration not stated) the Potency was inconclusive: 18.5 µM [inhibitor, single point]. With `CCOC(=O)c1ccc(NC(=O)Nc2ccc(Cl)cn2)cc1` the Potency was inconclusive: 10.4 µM [inhibitor, single point].
